Measurements from paper PMC12040169 (PLOS Biology, 2025).
The list shows a part of the results.

What follows are compounds tested on T1, CTL2-GFP (C. trachomatis L2/434/Bu, GFP-expressing). Settings: bulk GFP, single well; 28.5 h, 10 µM; inhibitor.
T1 construct: L2/434/Bu, GFP-expressing
Parameters: species or system HeLa; Intracellular C. trachomatis growth in HeLa cells, bulk GFP fluorescence relative to DMSO

Compound | % of control remaining
CCc1nnc(NS(=O)(=O)c2ccc(NCc3cc(Cl)ccc3O)cc2)s1 [CBK200051] | 77.0639%
O=C(c1ccccc1F)N1CCCC(c2n[nH]c3ncccc23)C1 (centres unmarked) [CBK282672] | 123.04%
CCc1cc(Br)ccc1S(=O)(=O)NCCC#N [CBK044760] | 97.8417%
Cc1cc(C)c2cc(CNC3CC3)c3nn(C)c(=O)n3c2c1 [CBK283186] | 112.647%
O=C(CCc1ccco1)N1CCCCC1c1nc2ccccc2[nH]1 (centres unmarked) [CBK283711] | 121.74%
CCC(CC)C(=O)N(C)c1c(C)nc2ccc(C(=O)N3CCN(S(=O)(=O)CC)CC3)cn12 [CBK146524] | 137.042%
Cc1ccc2[nH]c(Nc3nc(C)cc(C)n3)nc2c1 [CBK263634] | 118.932%
O=S(=O)(Nc1nnn[nH]1)c1ccc(N2CCOCC2)nc1 [CBK062385] | 101.701%
Cc1ncsc1CCOc1cc(NC(C)C)ncn1 [CBK115884] | 100%
CC[C@H]1C[N@@]2CC[C@H]1C[C@@H]2CNS(=O)(=O)c1cccc(C#N)c1 [CBK288746] | 145.768%
O=C(O)c1ccccc1C1SCCCS1 [CBK016303] | 147.936%
CC1(C)CC(NCC(O)COc2cc(C(C)(C)C)c(O)c(C(C)(C)C)c2)CC(C)(C)N1 (centres unmarked) [CBK264564] | 96.0619%
O=C(O)c1cccc(CSc2nnc(Cc3ccccc3)o2)c1 [CBK268060] | 136.225%
O=C(Cc1ccccc1)NN1C(=O)/C(=C/c2ccccc2C(=O)O)SC1=S [CBK262975] | 113.386%
Cc1c(C(=O)NCCCN2CCOCC2)oc2c1C(=O)CCC2 [CBK270207] | 122.91%
CN1CCC[C@H]1c1nc(-c2ccc(-n3ccnc3)nc2)no1 [CBK288893] | 128.757%
COc1ccc(N2CCN(c3nc(NCCO)nc(OC)n3)CC2)cc1 [CBK265478] | 100%
CCCC(=O)Nc1ccc(-c2csc(N3CCCC3=O)n2)cc1 [CBK306088] | 121.01%
COc1ccc(CNC(=O)C2CCCN(S(C)(=O)=O)C2)cc1OC (centres unmarked) [CBK299830] | 128.912%
COc1ccc(Oc2nccnc2N2CCN(Cc3ccc4c(c3)OCO4)CC2)cc1OC [CBK083048T] | 107.571%
CN1CCCC(C(=O)Nc2cnc(-c3cccc(C(F)(F)F)c3)c(-c3cccnc3)n2)C1 (centres unmarked) [CBK036787] | 180.566%
O=c1[nH]nc2n1-c1ccccc1OC2 [CBK010583] | 105.723%
O=C(N[C@H]1C[C@H]2C(=O)Nc3ccc(-c4ccsc4)cc3C(=O)N2C1)c1ccccc1 [CBK289361] | 103.779%
O=C(Cn1ccc(=O)[nH]c1=O)Nc1ccc(OCC(F)(F)F)cc1 [CBK305879] | 59.0437%
Nc1ncc(-c2ccc(C(=O)N3CCOCC3)cc2)cc1C(=O)NCc1c(F)cccc1F [CBK158569] | 99.8591%

Individual results from the entries so far:
For % of control remaining, O=C(c1ccccc1F)N1CCCC(c2n[nH]c3ncccc23)C1 (centres unmarked) [CBK282672] reads 123.04%
For % of control remaining, CN1CCCC(C(=O)Nc2cnc(-c3cccc(C(F)(F)F)c3)c(-c3cccnc3)n2)C1 (centres unmarked) [CBK036787] reads 180.566%
For % of control remaining, Cc1ncsc1CCOc1cc(NC(C)C)ncn1 [CBK115884] reads 100%

Later entries

Compound | % of control remaining
Nc1nc(OCCn2cccc2)cnc1-c1ccsc1 [CBK145162] | 114.597%
CN(Cc1ccccc1)c1nccnc1-c1ccccc1F [CBK037410] | 100.146%
O=C(c1ccccc1)c1ccc(OCC(O)CN2CCN(c3ccccn3)CC2)cc1 (centres unmarked) [CBK266513] | 131.839%
Cc1ccc(OCC(=O)Nc2cc(Cl)ccc2O)cc1C [CBK265968] | 115.2%
O=C(CCn1c2ccccc2c2ccccc21)NNC(=S)Nc1ccccc1 [CBK262106] | 95.379%
O=C1NCCCC12CCN(Cc1ccc3ncccc3c1)CC2 [CBK284825] | 105.365%
C=CCNC(=O)N[C@H]1[C@H](O)[C@@H](Oc2ccccc2)[C@@H]2OC[C@H]1O2 [CBK288812] | 113.28%
CCn1ccc(C(=O)NC(c2cncc(OC)c2)[C@H]2C[C@@H](O)C2)cc1=O (some centres unmarked) [CBK307696] | 120.174%
N#Cc1c(C(F)(F)F)cc(-c2ccccc2)nc1SCCC(=O)Nc1ccccc1O [CBK268191] | 93.1447%
CC(Cn1cncn1)C(=O)N1CCC(CCc2ccccc2F)CC1 (centres unmarked) [CBK281529] | 120.351%
Cc1ccccc1Nc1nc(N)nc(CN2CC(C)OC(C)C2)n1 (centres unmarked) [CBK305856] | 107.154%
CN(C)[C@H]1CCCC[C@@H]1n1c(-c2ccc(Cl)c(Cl)c2)n[nH]c1=O [CBK010566] | 108.345%
COc1ccc(S(=O)(=O)N2CCCCC2C(=O)O)cc1 (centres unmarked) [CBK077424] | 180.603%
O=C(/C=C/c1ccc([N+](=O)[O-])cc1)c1ccc(O)c(O)c1 [CBK265028] | 90.894%
O=C(Nc1sc2c(c1C(=O)O)CCC2)c1cccs1 [CBK152437] | 117.667%
OC(CN[C@H]1CC[C@](O)(c2ccc(Cl)cc2)CC1)c1ccccc1 (some centres unmarked) [CBK016206] | 139.039%
CC(=O)c1ccc(NC(=O)N(C)c2c(C)nc3ccc(C(=O)N4CCN(C(=O)c5ccco5)CC4)cn23)cc1 [CBK146930] | 118.063%
O=C(NCC1(CCO)CCOC1)c1c[nH]nc1-c1cc2ccccc2o1 (centres unmarked) [CBK305492] | 127.472%
O=C1CCC(C(=O)N2CC3(CCCC3)c3c(F)cccc32)CN1 (centres unmarked) [CBK304914] | 73.5935%
Cc1ccc(-c2csc(NC(=O)c3ccc(F)cc3)n2)cc1 [CBK095107] | 133.559%
CN(CCc1ccncc1)C(=O)c1[nH]nc2c1CCCCC2 [CBK283151] | 112.613%
O=C(NCc1ccc(OC2CCNCC2)cc1)c1cnccn1 [CBK036359T] | 103.572%
Cc1cc(C)n(CC(=O)NCC(c2c(F)cccc2F)N(C)C)n1 (centres unmarked) [CBK305510] | 104.511%
O=C(Cc1ccc(F)cc1)N1C2CCC1CC(O)(c1ccco1)C2 (centres unmarked) [CBK284033] | 131.022%
O[C@@H]1C[C@@H](c2nc(-c3ccc(F)cc3)no2)N(Cc2ncc[nH]2)C1 [CBK288849] | 114.208%
